In patent US20160113911A1, “METHODS AND COMPOSITIONS FOR THE TREATMENT OF CANCER” (THE GENERAL HOSPITAL CORPORATION, priority 2013, published 2016) one finds Localization data, which are given here for 5 molecules.

The chains are these.
B1: 2A-R825H*: KDM4A mutation (protein, UniProt O75164 2-1064, looked up, variant R825H)
Lysine-specific demethylase 4A: ASESETLNPSARIMTFYPTMEEFRNFSRYIAYIESQGAHRAGLAKVVPPKEWKPRASYDDIDDLVIPAPIQQLVTGQSGLFTQYNIQKKAMTVREFRKIANSDKYCTPRYSEFEELERKYWKNLTFNPPIYGADVNGTLYEKHVDEWNIGRLRTILDLVEKESGITIEGVNTPYLYFGMWKTSFAWHTEDMDLYSINYLHFGEPKSWYSVPPEHGKRLERLAKGFFPGSAQSCEAFLRHKMTLISPLMLKKYGIPFDKVTQEAGEFMITFPYGYHAGFNHGFNCAESTNFATRRWIEYGKQAVLCSCRKDMVKISMDVFVRKFQPERYKLWKAGKDNTVIDHTLPTPEAAEFLKESELPPRAGNEEECPEEDMEGVEDGEEGDLKTSLAKHRIGTKRHRVCLEIPQEVSQSELFPKEDLSSEQYEMTECPAALAPVRPTHSSVRQVEDGLTFPDYSDSTEVKFEELKNVKLEEEDEEEEQAAAALDLSVNPASVGGRLVFSGSKKKSSSSLGSGSSRDSISSDSETSEPLSCRAQGQTGVLTVHSYAKGDGRVTVGEPCTRKKGSAARSFSERELAEVADEYMFSLEENKKSKGRRQPLSKLPRHHPLVLQECVSDDETSEQLTPEEEAEETEAWAKPLSQLWQNRPPNFEAEKEFNETMAQQAPHCAVCMIFQTYHQVEFGGFNQNCGNASDLAPQKQRTKPLIPEMCFTSTGCSTDINLSTPYLEEDGTSILVSCKKCSVRVHASCYGVPPAKASEDWMCSRCSANALEEDCCLCSLRGGALQRANDDRWVHVSCAVAILEARFVNIAERSPVDVSKIPLPHFKLKCIFCKKRRKRTAGCCVQCSHGRCPTAFHVSCAQAAGVMMQPDDWPFVVFITCFRHKIPNLERAKGALQSITAGQKVISKHKNGRFYQCEVVRLTTETFYEVNFDDGSFSDNLYPEDIVSQDCLQFGPPAEGEVVQVRWTDGQVYGAKFVASHPIQMYQVEFEDGSQLVVKRDDVYTLDEELPKRVKSRLSVASDMRFNEIFTEKEVKQEKKRQRVINSRYREDYIEPALYRAIME
B2: 2A-R1025C*: KDM4A mutation (protein, UniProt O75164 2-1064, looked up, variant R1025C)
Lysine-specific demethylase 4A: ASESETLNPSARIMTFYPTMEEFRNFSRYIAYIESQGAHRAGLAKVVPPKEWKPRASYDDIDDLVIPAPIQQLVTGQSGLFTQYNIQKKAMTVREFRKIANSDKYCTPRYSEFEELERKYWKNLTFNPPIYGADVNGTLYEKHVDEWNIGRLRTILDLVEKESGITIEGVNTPYLYFGMWKTSFAWHTEDMDLYSINYLHFGEPKSWYSVPPEHGKRLERLAKGFFPGSAQSCEAFLRHKMTLISPLMLKKYGIPFDKVTQEAGEFMITFPYGYHAGFNHGFNCAESTNFATRRWIEYGKQAVLCSCRKDMVKISMDVFVRKFQPERYKLWKAGKDNTVIDHTLPTPEAAEFLKESELPPRAGNEEECPEEDMEGVEDGEEGDLKTSLAKHRIGTKRHRVCLEIPQEVSQSELFPKEDLSSEQYEMTECPAALAPVRPTHSSVRQVEDGLTFPDYSDSTEVKFEELKNVKLEEEDEEEEQAAAALDLSVNPASVGGRLVFSGSKKKSSSSLGSGSSRDSISSDSETSEPLSCRAQGQTGVLTVHSYAKGDGRVTVGEPCTRKKGSAARSFSERELAEVADEYMFSLEENKKSKGRRQPLSKLPRHHPLVLQECVSDDETSEQLTPEEEAEETEAWAKPLSQLWQNRPPNFEAEKEFNETMAQQAPHCAVCMIFQTYHQVEFGGFNQNCGNASDLAPQKQRTKPLIPEMCFTSTGCSTDINLSTPYLEEDGTSILVSCKKCSVRVHASCYGVPPAKASEDWMCSRCSANALEEDCCLCSLRGGALQRANDDRWVHVSCAVAILEARFVNIAERSPVDVSKIPLPRFKLKCIFCKKRRKRTAGCCVQCSHGRCPTAFHVSCAQAAGVMMQPDDWPFVVFITCFRHKIPNLERAKGALQSITAGQKVISKHKNGRFYQCEVVRLTTETFYEVNFDDGSFSDNLYPEDIVSQDCLQFGPPAEGEVVQVRWTDGQVYGAKFVASHPIQMYQVEFEDGSQLVVKRDDVYTLDEELPKRVKSRLSVASDMCFNEIFTEKEVKQEKKRQRVINSRYREDYIEPALYRAIME
B3: 2A-V919M: KDM4A mutation (protein)
chain: MASESETLNPSARIMTFYPTMEEFRNFSRYIAYIESQGAHRAGLAKVVPPKEWKPRASYDDIDDLVIPAPIQQLVTGQSGLFTQYNIQKKAMTVREFRKIANSDKYCTPRYSEFEELERKYWKNLTFNPPIYGADVNGTLYEKHVDEWNIGRLRTILDLVEKESGITIEGVNTPYLYFGMWKTSFAWHTEDMDLYSINYLHFGEPKSWYSVPPEHGKRLERLAKGFFPGSAQSCEAFLRHKMTLISPLMLKKYGIPFDKVTQEAGEFMITFPYGYHAGFNHGFNCAESTNFATRRWIEYGKQAVLCSCRKDMVKISMDVFVRKFQPERYKLWKAGKDNTVIDHTLPTPEAAEFLKESELPPRAGNEEECPEEDMEGVEDGEEGDLKTSLAKHRIGTKRHRVCLEIPQEVSQSELFPKEDLSSEQYEMTECPAALAPVRPTHSSVRQVEDGLTFPDYSDSTEVKFEELKNVKLEEEDEEEEQAAAALDLSVNPASVGGRLVFSGSKKKSSSSLGSGSSRDSISSDSETSEPLSCRAQGQTGVLTVHSYAKGDGRVTVGEPCTRKKGSAARSFSERELAEVADEYMFSLEENKKSKGRRQPLSKLPRHHPLVLQECVSDDETSEQLTPEEEAEETEAWAKPLSQLWQNRPPNFEAEKEFNETMAQQAPHCAVCMIFQTYHQVEFGGFNQNCGNASDLAPQKQRTKPLIPEMCFTSTGCSTDINLSTPYLEEDGTSILVSCKKCSVRVHASCYGVPPAKASEDWMCSRCSANALEEDCCLCSLRGGALQRANDDRWVHVSCAVAILEARFVNIAERSPVDVSKIPLPRFKLKCIFCKKRRKRTAGCCVQCSHGRCPTAFHVSCAQAAGVMMQPDDWPFVVFITCFRHKIPNLERAKGALQSITAGQKVISKHKNGRFYQCEMVRLTTETFYEVNFDDGSFSDNLYPEDIVSQDCLQFGPPAEGEVVQVRWTDGQVYGAKFVASHPIQMYQVEFEDGSQLVVKRDDVYTLDEELPKRVKSRLSVASDMRFNEIFTEKEVKQEKKRQRVINSRYREDYIEPALYRAIME
B4: 2A-V1003A: KDM4A mutation (protein)
chain: MASESETLNPSARIMTFYPTMEEFRNFSRYIAYIESQGAHRAGLAKVVPPKEWKPRASYDDIDDLVIPAPIQQLVTGQSGLFTQYNIQKKAMTVREFRKIANSDKYCTPRYSEFEELERKYWKNLTFNPPIYGADVNGTLYEKHVDEWNIGRLRTILDLVEKESGITIEGVNTPYLYFGMWKTSFAWHTEDMDLYSINYLHFGEPKSWYSVPPEHGKRLERLAKGFFPGSAQSCEAFLRHKMTLISPLMLKKYGIPFDKVTQEAGEFMITFPYGYHAGFNHGFNCAESTNFATRRWIEYGKQAVLCSCRKDMVKISMDVFVRKFQPERYKLWKAGKDNTVIDHTLPTPEAAEFLKESELPPRAGNEEECPEEDMEGVEDGEEGDLKTSLAKHRIGTKRHRVCLEIPQEVSQSELFPKEDLSSEQYEMTECPAALAPVRPTHSSVRQVEDGLTFPDYSDSTEVKFEELKNVKLEEEDEEEEQAAAALDLSVNPASVGGRLVFSGSKKKSSSSLGSGSSRDSISSDSETSEPLSCRAQGQTGVLTVHSYAKGDGRVTVGEPCTRKKGSAARSFSERELAEVADEYMFSLEENKKSKGRRQPLSKLPRHHPLVLQECVSDDETSEQLTPEEEAEETEAWAKPLSQLWQNRPPNFEAEKEFNETMAQQAPHCAVCMIFQTYHQVEFGGFNQNCGNASDLAPQKQRTKPLIPEMCFTSTGCSTDINLSTPYLEEDGTSILVSCKKCSVRVHASCYGVPPAKASEDWMCSRCSANALEEDCCLCSLRGGALQRANDDRWVHVSCAVAILEARFVNIAERSPVDVSKIPLPRFKLKCIFCKKRRKRTAGCCVQCSHGRCPTAFHVSCAQAAGVMMQPDDWPFVVFITCFRHKIPNLERAKGALQSITAGQKVISKHKNGRFYQCEVVRLTTETFYEVNFDDGSFSDNLYPEDIVSQDCLQFGPPAEGEVVQVRWTDGQVYGAKFVASHPIQMYQVEFEDGSQLVVKRDDAYTLDEELPKRVKSRLSVASDMRFNEIFTEKEVKQEKKRQRVINSRYREDYIEPALYRAIME
B5: 2A-D1023Y: KDM4A mutation (protein)
chain: MASESETLNPSARIMTFYPTMEEFRNFSRYIAYIESQGAHRAGLAKVVPPKEWKPRASYDDIDDLVIPAPIQQLVTGQSGLFTQYNIQKKAMTVREFRKIANSDKYCTPRYSEFEELERKYWKNLTFNPPIYGADVNGTLYEKHVDEWNIGRLRTILDLVEKESGITIEGVNTPYLYFGMWKTSFAWHTEDMDLYSINYLHFGEPKSWYSVPPEHGKRLERLAKGFFPGSAQSCEAFLRHKMTLISPLMLKKYGIPFDKVTQEAGEFMITFPYGYHAGFNHGFNCAESTNFATRRWIEYGKQAVLCSCRKDMVKISMDVFVRKFQPERYKLWKAGKDNTVIDHTLPTPEAAEFLKESELPPRAGNEEECPEEDMEGVEDGEEGDLKTSLAKHRIGTKRHRVCLEIPQEVSQSELFPKEDLSSEQYEMTECPAALAPVRPTHSSVRQVEDGLTFPDYSDSTEVKFEELKNVKLEEEDEEEEQAAAALDLSVNPASVGGRLVFSGSKKKSSSSLGSGSSRDSISSDSETSEPLSCRAQGQTGVLTVHSYAKGDGRVTVGEPCTRKKGSAARSFSERELAEVADEYMFSLEENKKSKGRRQPLSKLPRHHPLVLQECVSDDETSEQLTPEEEAEETEAWAKPLSQLWQNRPPNFEAEKEFNETMAQQAPHCAVCMIFQTYHQVEFGGFNQNCGNASDLAPQKQRTKPLIPEMCFTSTGCSTDINLSTPYLEEDGTSILVSCKKCSVRVHASCYGVPPAKASEDWMCSRCSANALEEDCCLCSLRGGALQRANDDRWVHVSCAVAILEARFVNIAERSPVDVSKIPLPRFKLKCIFCKKRRKRTAGCCVQCSHGRCPTAFHVSCAQAAGVMMQPDDWPFVVFITCFRHKIPNLERAKGALQSITAGQKVISKHKNGRFYQCEVVRLTTETFYEVNFDDGSFSDNLYPEDIVSQDCLQFGPPAEGEVVQVRWTDGQVYGAKFVASHPIQMYQVEFEDGSQLVVKRDDVYTLDEELPKRVKSRLSVASYMRFNEIFTEKEVKQEKKRQRVINSRYREDYIEPALYRAIME

The data set in a line: Subcellular localization of KDM4 variants (immunofluorescence). Format: cell-based. Particulars: KDM4A mutations; % nuclear.
As for B1, the Localization result is “++ (++ indicates 60-79% nuclear)”. The entry for B2 is “++ (++ indicates 60-79% nuclear)”; for B3 it is “+ (+ indicates 40-59% nuclear)”. As for B4, the Localization result is reported as “++ (++ indicates 60-79% nuclear)”. The entry for B5 is “++ (++ indicates 60-79% nuclear)”.
